The record followed here is article PMC4814918.

This assay deals with T1, FLAG-ChREBP-α (carbohydrate responsive element binding protein, isoform alpha) (UniProt Q9NP71).
T1 sequence: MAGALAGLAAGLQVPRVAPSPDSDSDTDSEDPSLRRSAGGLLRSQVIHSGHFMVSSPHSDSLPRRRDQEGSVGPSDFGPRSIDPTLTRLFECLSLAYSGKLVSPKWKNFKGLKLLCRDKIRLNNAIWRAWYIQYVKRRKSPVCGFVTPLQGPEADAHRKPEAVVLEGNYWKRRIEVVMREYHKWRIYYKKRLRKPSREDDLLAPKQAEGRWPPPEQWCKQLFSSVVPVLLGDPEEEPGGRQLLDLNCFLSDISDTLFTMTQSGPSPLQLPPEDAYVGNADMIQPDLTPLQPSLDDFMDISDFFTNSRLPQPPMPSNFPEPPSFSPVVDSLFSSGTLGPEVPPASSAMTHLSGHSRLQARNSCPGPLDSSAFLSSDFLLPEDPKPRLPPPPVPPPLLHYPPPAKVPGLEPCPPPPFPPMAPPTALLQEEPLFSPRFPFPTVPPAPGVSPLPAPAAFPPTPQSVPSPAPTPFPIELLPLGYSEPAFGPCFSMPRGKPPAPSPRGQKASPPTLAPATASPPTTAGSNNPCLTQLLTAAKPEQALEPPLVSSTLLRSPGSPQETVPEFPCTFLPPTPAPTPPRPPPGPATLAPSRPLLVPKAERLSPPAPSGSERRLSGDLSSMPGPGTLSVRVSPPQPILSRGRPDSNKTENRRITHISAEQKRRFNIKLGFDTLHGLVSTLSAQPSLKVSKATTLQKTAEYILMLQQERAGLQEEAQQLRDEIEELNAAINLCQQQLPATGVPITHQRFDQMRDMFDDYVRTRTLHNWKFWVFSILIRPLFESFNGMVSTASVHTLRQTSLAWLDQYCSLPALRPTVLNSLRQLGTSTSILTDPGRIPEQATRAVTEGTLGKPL
Description: co-IP; FLAG-ChREBP-α and HA-HNF-4α co-transfected in 293T cells, with or without ectopic Mlx; also cells treated with 0, 5.6 or 25 mM glucose for 18 hours; lysis buffer 1 mM EDTA, 40 mM Tris-HCl pH 8, 100 mM NaCl, 0.5% NP-40, 1% Triton X-100; primary antibody at 4 °C overnight, protein A/G-agarose beads; western blot.

Results are given in words; binding and its absence hold for the method and conditions named. Binding seen in cells or lysates may run through a third protein. Some binding calls cover weakened binding; strength is not graded here. Where a sequence is shown, tags or fusion partners need not be part of it.

B1: HA-HNF-4α (hepatocyte nuclear factor 4 alpha) (protein, UniProt P41235 1-474)
chain: MRLSKTLVDMDMADYSAALDPAYTTLEFENVQVLTMGNDTSPSEGTNLNAPNSLGVSALCAICGDRATGKHYGASSCDGCKGFFRRSVRKNHMYSCRFSRQCVVDKDKRNQCRYCRLKKCFRAGMKKEAVQNERDRISTRRSSYEDSSLPSINALLQAEVLSRQITSPVSGINGDIRAKKIASIADVCESMKEQLLVLVEWAKYIPAFCELPLDDQVALLRAHAGEHLLLGATKRSMVFKDVLLLGNDYIVPRHCPELAEMSRVSIRILDELVLPFQELQIDDNEYAYLKAIIFFDPDAKGLSDPGKIKRLRSQVQVSLEDYINDRQYDSRGRFGELLLLLPTLQSITWQMIEQIQFIKLFGMAKIDNLLQEMLLGGSPSDAPHAHHPLHPHLMQEHMGTNVIVANTMPTHLSNGQMCEWPRPRGQAATPETPQPSPPGGSGSEPYKLLPGAVATIVKPLSAIPQPTITKQEVI
For the molecule B1, the binding entry was “binds”.
